From patent US20070254895A1, “Crystalline solvate of glucokinase activator” (priority 2006, published 2007) come the findings set out here.

Structures are written as SMILES.

Turning to `CS(=O)(=O)c1ccc([C@@H](C[C@H]2CCC(=O)C2)C(=O)Nc2cnccn2)cc1Cl` [IPA solvate, 2(R)-(3-Chloro-4-methanesulfonyl-phenyl)-3-((R)-3-oxo-cyclopentyl)-N-pyrazin-2-yl-propionamide], the “weight lost on exposure to high humidity” value (95% relative humidity and 25° C. for 4 days) is “about 3.8%”. The “changes in powder XRD pattern” value (water vapor treated sample and stability sample at 40° C./75% RH for 3 months vs control) is listed as “no changes in powder XRD pattern”.
